In doi:10.1101/2023.07.08.548186:
No constants are given. Whether binding was seen depends on the method and setting. Some entries that bind do so weakly or less than the wild type.

Assays:
[1] = target: human ATG2A, full length (human) (UniProt Q2TAZ0); test: cryo-electron tomography
[2] = target: human ATG2A, full length (human) (UniProt Q2TAZ0); test: cryo-EM structure
[3] = target: human ATG2A, full length (human) (UniProt Q2TAZ0); test: cryo-EM structure; remark: listed apart in the source
[4] = target: human ATG2A, full length (human) (UniProt Q2TAZ0); test: cryo-EM structure; remark: listed apart in the source
[5] = target: human ATG2A, full length (human) (UniProt Q2TAZ0); test: cross-linking
[6] = target: T1, human ATG2A, full length (human), Q2TAZ0; test: pull-down; conditions: remark: other sources report otherwise
T1 chain: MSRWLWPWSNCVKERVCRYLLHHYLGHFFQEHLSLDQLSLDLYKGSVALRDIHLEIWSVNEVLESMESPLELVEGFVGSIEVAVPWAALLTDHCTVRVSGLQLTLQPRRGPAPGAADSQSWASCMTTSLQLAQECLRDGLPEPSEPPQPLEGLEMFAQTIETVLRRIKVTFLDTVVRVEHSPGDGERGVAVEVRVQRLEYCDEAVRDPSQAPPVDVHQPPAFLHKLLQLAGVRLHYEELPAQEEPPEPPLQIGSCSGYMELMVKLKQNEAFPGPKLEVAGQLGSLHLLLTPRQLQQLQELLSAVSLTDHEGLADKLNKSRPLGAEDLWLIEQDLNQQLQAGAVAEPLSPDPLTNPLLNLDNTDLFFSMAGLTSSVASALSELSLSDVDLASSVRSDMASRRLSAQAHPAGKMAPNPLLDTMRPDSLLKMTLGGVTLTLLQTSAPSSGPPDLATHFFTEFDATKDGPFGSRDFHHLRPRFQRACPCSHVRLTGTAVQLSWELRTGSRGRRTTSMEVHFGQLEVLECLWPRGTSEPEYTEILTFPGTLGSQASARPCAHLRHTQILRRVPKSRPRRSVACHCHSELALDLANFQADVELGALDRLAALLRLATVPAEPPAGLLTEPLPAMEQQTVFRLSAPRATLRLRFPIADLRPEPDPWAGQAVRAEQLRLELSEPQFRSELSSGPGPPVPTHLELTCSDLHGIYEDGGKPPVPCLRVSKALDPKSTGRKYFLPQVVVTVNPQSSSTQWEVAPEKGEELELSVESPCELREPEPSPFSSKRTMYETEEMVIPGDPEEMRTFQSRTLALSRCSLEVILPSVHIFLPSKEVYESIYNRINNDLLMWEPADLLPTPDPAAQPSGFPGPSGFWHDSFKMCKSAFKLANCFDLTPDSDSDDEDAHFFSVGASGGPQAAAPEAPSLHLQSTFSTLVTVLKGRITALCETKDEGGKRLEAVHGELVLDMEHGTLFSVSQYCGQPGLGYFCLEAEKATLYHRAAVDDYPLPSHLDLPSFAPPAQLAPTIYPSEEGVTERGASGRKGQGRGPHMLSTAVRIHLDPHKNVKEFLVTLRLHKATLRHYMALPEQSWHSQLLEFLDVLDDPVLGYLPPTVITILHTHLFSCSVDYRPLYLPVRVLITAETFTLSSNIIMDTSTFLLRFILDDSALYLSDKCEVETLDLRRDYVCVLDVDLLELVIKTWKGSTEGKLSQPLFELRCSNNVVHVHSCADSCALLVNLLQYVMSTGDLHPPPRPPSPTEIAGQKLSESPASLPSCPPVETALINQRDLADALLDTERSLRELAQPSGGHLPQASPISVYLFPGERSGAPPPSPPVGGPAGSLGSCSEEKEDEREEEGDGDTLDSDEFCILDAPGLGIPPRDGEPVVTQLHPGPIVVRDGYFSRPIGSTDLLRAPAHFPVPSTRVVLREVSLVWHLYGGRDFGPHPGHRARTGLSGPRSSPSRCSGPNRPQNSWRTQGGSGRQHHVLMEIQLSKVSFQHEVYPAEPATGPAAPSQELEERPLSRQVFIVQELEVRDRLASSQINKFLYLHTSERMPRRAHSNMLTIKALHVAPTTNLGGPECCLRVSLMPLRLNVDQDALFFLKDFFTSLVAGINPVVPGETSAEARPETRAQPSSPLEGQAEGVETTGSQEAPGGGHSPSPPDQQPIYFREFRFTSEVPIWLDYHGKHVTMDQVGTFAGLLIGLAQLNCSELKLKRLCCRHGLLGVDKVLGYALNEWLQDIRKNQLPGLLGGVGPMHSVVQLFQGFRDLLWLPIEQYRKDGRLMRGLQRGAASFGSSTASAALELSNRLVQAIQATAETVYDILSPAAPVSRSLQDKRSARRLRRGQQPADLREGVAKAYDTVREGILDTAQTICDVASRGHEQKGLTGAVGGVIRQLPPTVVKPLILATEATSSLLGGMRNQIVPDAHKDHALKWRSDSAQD

Measured: binding

B1: WIPI4 (protein, UniProt Q9Y484 1-360)
chain: MTQQPLRGVTSLRFNQDQSCFCCAMETGVRIYNVEPLMEKGHLDHEQVGSMGLVEMLHRSNLLALVGGGSSPKFSEISVLIWDDAREGKDSKEKLVLEFTFTKPVLSVRMRHDKIVIVLKNRIYVYSFPDNPRKLFEFDTRDNPKGLCDLCPSLEKQLLVFPGHKCGSLQLVDLASTKPGTSSAPFTINAHQSDIACVSLNQPGTVVASASQKGTLIRLFDTQSKEKLVELRRGTDPATLYCINFSHDSSFLCASSDKGTVHIFALKDTRLNRRSALARVGKVGPMIGQYVDSQWSLASFTVPAESACICAFGRNTSKNVNSVIAICVDGTFHKYVFTPDGNCNREAFDVYLDICDDDDF
not listed: [6]
binds: all other assays above

B2: GABARAP, O95166 1-117 (protein)
chain: MKFVYKEEHPFEKRRSEGEKIRKKYPDRVPVIVEKAPKARIGDLDKKKYLVPSDLTVGQFYFLIRKRIHLRAEDALFFFVNNVIPPTSATMGQLYQEHHEEDFFLYIAYSDESVYGL
binds: [6]
